The list shows only some results of the screen, not a fair sample: it is rich in T/C values a quarter to a half above the control, in often repeated tests (any T/C) and in doses without a T/C. Further doses and runs are listed elsewhere. T/C is the treated group as % of the vehicle group. Some entries give survivors of the animals treated and no T/C: the source files T/C as zero there, which appears to mark a toxic dose or a test without result, not a measured value. Some doses without a T/C left all or most animals alive at the check, yet need not have been tolerated: survival well below the control is almost never listed, so the zero probably covers shortened survival too. Counts of survivors are from the toxicity check (mostly the fifth day) where no day follows; animals may have died later. Schedules are NCI's codes, taken here to give the interval after Q, in days (D) or hours (H), and the number of doses after X. Some entries were tested several times; the results are listed from low to high. Where survival is the endpoint, this PubChem deposit counts one and a half times the control or more as active, and values a quarter to a half above the control carry no call in these data; other NCI protocols may use other cut-offs. Some T/C values are followed by the survivors on the day toxicity was checked, most often the fifth; without a count, all were alive then.
Tested on: L1210 leukemia ip in BDF1 mice, survival T/C
Assay: NCI In Vivo Anticancer Drug Screen. Data for tumor model L1210 Leukemia (intraperitoneal) in B6D2F1 (BDF1) mice
Conditions: T/C endpoint: mean survival time, higher T/C = longer survival
[1] = dose: 100.0 mg/kg/injection, schedule: Q01DX009 (ip), vehicle: saline with Tween-80
[2] = dose: 200.0 mg/kg/injection, schedule: Q01DX009 (ip), vehicle: saline with Tween-80
[3] = dose: 400.0 mg/kg/injection, schedule: Q01DX009 (ip), vehicle: saline with Tween-80
[4] = dose: 200.0 mg/kg/injection, schedule: Q04DX002 (ip), vehicle: saline with Tween-80
[5] = dose: 400.0 mg/kg/injection, schedule: Q04DX003 (ip), vehicle: saline with Tween-80

In the case of `O=C(CBr)c1ccccc1`, the survivor count (dose: 40.0 mg/kg/injection, schedule: Q04DX003 (ip), vehicle: saline with Tween-80) is reported as 3 of 6.

With `CC[As](=O)(O)CC(C)C` the survivor count (dose: 200.0 mg/kg/injection, schedule: Q01DX009 (ip), vehicle: saline) was 0 of 6 and the survivor count (dose: 400.0 mg/kg/injection, schedule: Q01DX009 (ip), vehicle: saline) was 0 of 6.

With `CN(C)N=Nc1ccccc1C(=O)O` the survivor count (dose: 6.25 mg/kg/injection, schedule: Q01DX009 (ip), vehicle: Klucel (hydroxypropylcellulose) (HPC)) was 6 of 6, the survivor count (dose: 12.5 mg/kg/injection, schedule: Q01DX009 (ip), vehicle: Klucel (hydroxypropylcellulose) (HPC)) was 6 of 6 and the survivor count (dose: 25.0 mg/kg/injection, schedule: Q01DX009 (ip), vehicle: Klucel (hydroxypropylcellulose) (HPC)) was 6 of 6. For the same molecule, the T/C (dose: 25.0 mg/kg/injection, schedule: Q01DX009 (ip), vehicle: saline with Tween-80) was 135 % of control, the survivor count (dose: 50.0 mg/kg/injection, schedule: Q01DX009 (ip), vehicle: Klucel (hydroxypropylcellulose) (HPC)) was 4 of 6 and the survivor count (dose: 50.0 mg/kg/injection, schedule: Q01DX009 (ip), vehicle: saline with Tween-80) was 1 of 6.

`CCCCOC(=O)c1ccc(OC(=O)Nc2ccc(Cl)cc2)cc1` was tested, and the T/C [1] was 92, 94, 99, 100 % of control, the T/C [2] was 92, 93, 105 % of control [2 of 3 alive] and the survivor count [2] was 2 of 6. For the same molecule, the survivor count [3] was 3 of 6 and 2 of 3.

`N#CCC(N)C(=O)O` (configuration not stated) was tested, and the survivor count (dose: 400.0 mg/kg/injection, schedule: Q01DX001 (ip), vehicle: saline) was 2 of 4.

`C/C=C/C=C\COC(=O)c1ccccc1OCC` was tested, and the T/C (dose: 400.0 mg/kg/injection, schedule: Q04DX002 (ip), vehicle: saline) was 148 % of control.

With `c1ccc(C(c2ccccc2)n2cc[n+](C(c3ccccc3)c3ccccc3)c2)cc1` the survivor count (dose: 50.0 mg/kg/injection, schedule: Q04DX002 (ip), vehicle: gum acacia) was 0 of 3, the survivor count (dose: 100.0 mg/kg/injection, schedule: Q04DX002 (ip), vehicle: gum acacia) was 0 of 3 and the survivor count (dose: 200.0 mg/kg/injection, schedule: Q04DX002 (ip), vehicle: gum acacia) was 0 of 3. For the same molecule, the survivor count (dose: 400.0 mg/kg/injection, schedule: Q04DX002 (ip), vehicle: gum acacia) was 0 of 3.

With `CCC(C(=O)C(C)C(O)C(C)CCc1ccc(C)c(O)c1C(=O)O)C1OC(CC)(C2CCC(O)(CC)C(C)O2)CC1C` (configuration not stated) the survivor count (dose: 100.0 mg/kg/injection, schedule: Q04DX002 (ip), vehicle: saline) was 0 of 3 and the survivor count (dose: 200.0 mg/kg/injection, schedule: Q04DX002 (ip), vehicle: saline) was 0 of 3.

For `Oc1cc[c]([Hg][Cl])cc1`, the survivor count (dose: 100.0 mg/kg/injection, schedule: Q04DX003 (ip), vehicle: Klucel (hydroxypropylcellulose) (HPC)) was 6 of 6, the survivor count (dose: 200.0 mg/kg/injection, schedule: Q04DX003 (ip), vehicle: Klucel (hydroxypropylcellulose) (HPC)) was 0 of 6 and the survivor count (dose: 400.0 mg/kg/injection, schedule: Q04DX003 (ip), vehicle: Klucel (hydroxypropylcellulose) (HPC)) was 0 of 6.

`Cc1ccc(C(=O)O)cc1S(=O)(=O)Cl` was tested, and the survivor count [3] was 1 of 6.

For `c1cc[c]([Sn]([c]2ccccc2)([c]2ccccc2)[n]2cccc2)cc1`, the survivor count (dose: 100.0 mg/kg/injection, schedule: Q04DX002 (ip), vehicle: saline with Tween-80) was 1 of 3, the survivor count [2] was 0 of 6 and the survivor count [4] was 0 of 3. The survivor count [3] was 0 of 6 and the survivor count (dose: 400.0 mg/kg/injection, schedule: Q04DX002 (ip), vehicle: saline with Tween-80) was 0 of 3.

For `CC(=O)OC(CC(=O)CC(O)(C(F)(F)F)C(F)(F)F)(C(F)(F)F)C(F)(F)F`, the survivor count (dose: 100.0 mg/kg/injection, schedule: Q04DX003 (ip), vehicle: saline with Tween-80) was 1 of 6, the survivor count (dose: 200.0 mg/kg/injection, schedule: Q04DX003 (ip), vehicle: saline with Tween-80) was 0 of 6 and the survivor count [5] was 0 of 6.

For `CCOC(=O)C(=N\Nc1ccc(C)cc1C)/C(C)=N\NC(N)=S`, the survivor count (dose: 150.0 mg/kg/injection, schedule: Q01DX001 (ip), vehicle: saline) was 1 of 6 and the survivor count (dose: 300.0 mg/kg/injection, schedule: Q01DX001 (ip), vehicle: saline) was 0 of 6.

With `N#CC(c1ccc(Cl)cc1)C(C/C(=N/Nc1ccc([N+](=O)[O-])cc1[N+](=O)[O-])c1ccccc1)c1ccccc1` (configuration not stated) the survivor count (dose: 100.0 mg/kg/injection, schedule: Q01DX001 (ip), vehicle: saline with Tween-80) was 6 of 6, the survivor count (dose: 200.0 mg/kg/injection, schedule: Q01DX001 (ip), vehicle: saline with Tween-80) was 6 of 6 and the survivor count (dose: 400.0 mg/kg/injection, schedule: Q01DX001 (ip), vehicle: saline with Tween-80) was 5 of 6.

With `O=[N+]([O-])C1CCC2CCC3CCCC1C32` (configuration not stated) the survivor count [4] was 3 of 3.

`O=[N+]([O-])c1sc2ccccc2c1Br` was tested, and the survivor count (dose: 20.0 mg/kg/injection, schedule: Q04DX003 (ip), vehicle: Klucel (hydroxypropylcellulose) (HPC)) was 3 of 6, the survivor count (dose: 40.0 mg/kg/injection, schedule: Q04DX003 (ip), vehicle: Klucel (hydroxypropylcellulose) (HPC)) was 1 of 6 and the survivor count (dose: 80.0 mg/kg/injection, schedule: Q04DX003 (ip), vehicle: Klucel (hydroxypropylcellulose) (HPC)) was 0 of 6.

With `CCOc1cc(/C=N/NC(=O)C[n+]2ccccc2)ccc1O` the survivor count [1] was 2 of 6, the survivor count [2] was 3 of 6 and the survivor count [3] was 0 of 6.

For `CCCCC(CC)(CCC)CCN` (configuration not stated), the survivor count (dose: 40.0 mg/kg/injection, schedule: Q01DX001 (ip), vehicle: carboxymethylcellulose (CMC)) was 4 of 4, the survivor count (dose: 50.0 mg/kg/injection, schedule: Q01DX001 (ip), vehicle: carboxymethylcellulose (CMC)) was 0 of 4 and the survivor count (dose: 80.0 mg/kg/injection, schedule: Q01DX001 (ip), vehicle: carboxymethylcellulose (CMC)) was 1 of 4. The survivor count (dose: 100.0 mg/kg/injection, schedule: Q01DX001 (ip), vehicle: carboxymethylcellulose (CMC)) was 0 of 4, the survivor count (dose: 200.0 mg/kg/injection, schedule: Q01DX001 (ip), vehicle: carboxymethylcellulose (CMC)) was 0 of 4 and the survivor count (dose: 400.0 mg/kg/injection, schedule: Q01DX001 (ip), vehicle: carboxymethylcellulose (CMC)) was 0 of 4.

With `CC(=O)OC1=C2C(C)(CCC(OC(C)=O)C2(C)C)C2=C(C1=O)C1(C)CCC(C(C)CCCC(C)C)C1(C)CC2=O` (configuration not stated) the survivor count [5] was 4 of 4.

— PubChem BioAssay AID248 (DTP/NCI, 2004)
